Experimental data as given in PubChem BioAssay AID2517 (National Center for Advancing Translational Sciences (NCATS), 2010).
Among all 350,000 compounds or so, about 1,200 (0.34%) were called active. This list was built around the results that the source calls inconclusive (neither active nor inactive); the mix of calls is not that of the screen. Calls follow the shape of the dose curve; as a rule, active = well fitted inhibition curve with a large enough effect; inconclusive = small, poorly fitted or top-dose-only effect; inactive = no such curve, though single readings can be large or run the other way. Where the call is inconclusive, the potency comes from a doubtful curve fit.

Sequences of proteins named here, by UniProt entry; tags and fusion partners are left off.
UniProt P27695, whole entry, looked up: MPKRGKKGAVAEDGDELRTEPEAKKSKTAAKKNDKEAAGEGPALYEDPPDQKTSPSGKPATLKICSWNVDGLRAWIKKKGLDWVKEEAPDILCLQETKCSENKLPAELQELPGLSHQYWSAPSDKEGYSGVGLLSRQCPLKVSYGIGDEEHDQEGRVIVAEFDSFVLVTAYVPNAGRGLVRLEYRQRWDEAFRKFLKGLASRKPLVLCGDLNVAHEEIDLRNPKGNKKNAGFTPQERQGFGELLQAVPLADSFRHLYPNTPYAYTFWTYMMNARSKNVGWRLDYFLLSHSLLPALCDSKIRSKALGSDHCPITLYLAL

Target: DNA repair nuclease/redox regulator APEX1 (Homo sapiens) (UniProt P27695)
Assay: qHTS Assay for Inhibitors of the Human Apurinic/apyrimidinic Endonuclease 1 (APE1); also: nearly all actives have a fitted effect of over 55% in size
Settings: recombinant APE1, TAMRA/BHQ-2 abasic DNA cleavage fluorescence; series mostly up to 65.8 µM
Method in brief: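 Quantitative HTS: incision of a TAMRA/BHQ-2 double-stranded substrate bearing a tetrahydrofuran abasic site by 0.75 nM APE1 raises fluorescence. Substrate 50 nM final, added after 15 min compound preincubation at room temperature; progress as third-minus-first kinetic read difference.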
Potency is read from the fitted curve at half-maximal effect.

| Compound | Potency |
| --- | --- |
| COc1cccc(/C=N/NC(=O)N/N=C/c2cccc(OC)c2O)c1O | inconclusive: 26.7 µM [inhibitor, single point] |
| NS(=O)(=O)c1cc(Cl)c(Cl)c(S(N)(=O)=O)c1 | inconclusive: 1.12 µM [inhibitor, full curve, poor fit] |
| N#CC1=C(N)NC(SCc2ccc(Cl)cc2)=C(C#N)C12CCCCC2 | inconclusive: 8.91 µM [inhibitor, single point] |
| O=C(O)CSc1cc(NS(=O)(=O)c2cccc([N+](=O)[O-])c2)c2ccccc2c1O | inactive |
| Nc1c(C(=O)NCc2ccco2)sc2nc(N3CCOCC3)c3c(c12)CCCC3 | inconclusive: 31.6 µM [inhibitor, single point] |
| Cc1noc(C)c1-c1ccc2ncnc(NC(C)c3ccco3)c2c1 (stereo unspecified) | inconclusive: 31.6 µM [inhibitor, single point] |
| N#Cc1cc(-c2ccccc2)[nH]c1-c1nccc2ccccc12 | inconclusive: 8.91 µM [inhibitor, single point] |
| Cc1cccc(C)c1NC(=O)COC(=O)c1ccc([N+](=O)[O-])o1 | inconclusive: 28.2 µM [inhibitor, partial curve, poor fit] |
| C/C(=N\NC(=O)c1cc(-c2cccc([N+](=O)[O-])c2)n[nH]1)c1ccc(F)cc1 | inconclusive: 3.55 µM [inhibitor, single point] |
| COc1cccc(OC)c1OCCCOc1cccc2cccnc12 | inconclusive: 6.31 µM [inhibitor, single point] |
| CCN(C(=O)COC(=O)c1cc(-c2cccc3ccccc23)nc2ccccc12)C1CCS(=O)(=O)C1 (stereo unspecified) | inconclusive: 44.7 µM [inhibitor, single point] |
| Cc1ccc(N=Cc2cc(Br)cc(Cl)c2O)cc1 | inconclusive: 7.08 µM [inhibitor, partial curve, poor fit] |
| COc1ccc(CNC(=O)Nc2ccc(C)cc2)cc1 | inconclusive: 44.7 µM [inhibitor, single point] |
| O=C(OCc1ccccc1)[C@@H]1COC(c2ccc(Br)cc2)=N1 | inactive |
| CCCc1cc(=O)oc2cc(OCC(=O)Nc3cc(C)on3)ccc12 | inactive |
| CCCNC(=O)CN1C(=O)NC(CCSC)C1=O (stereo unspecified) | inconclusive: 3.98 µM [inhibitor, full curve, poor fit] |
| O=C(O)c1cc(C2CC2)nc2ccccc12 | inconclusive: 3.16 µM [inhibitor, single point] |
| Cc1ccccc1CSc1nnc([C@@H]2CCCN2)o1 | inconclusive: 5.01 µM [inhibitor, single point] |
| Cc1cc(/C=C2\SC(=S)NC2=O)c(C)n1-c1ccc(O)cc1 | inactive |
| CN(CC(=O)Nc1cccc(F)c1)CC(=O)Nc1cccc([N+](=O)[O-])c1 | inconclusive: 0.316 µM [inhibitor, full curve] |
| O=C(Nc1ccc2nc(-c3cccnc3)[nH]c2c1)c1ccco1 | inconclusive: 31.6 µM [inhibitor, partial curve] |
| CC(=O)Oc1ccc2c(=O)c(-c3ccccc3)coc2c1 | inconclusive: 0.1 µM [inhibitor, full curve] |

13 entries from above, with tabs:
Compound	Potency
NS(=O)(=O)c1cc(Cl)c(Cl)c(S(N)(=O)=O)c1	inconclusive: 1.12 µM [inhibitor, full curve, poor fit]
N#CC1=C(N)NC(SCc2ccc(Cl)cc2)=C(C#N)C12CCCCC2	inconclusive: 8.91 µM [inhibitor, single point]
O=C(O)CSc1cc(NS(=O)(=O)c2cccc([N+](=O)[O-])c2)c2ccccc2c1O	inactive
Nc1c(C(=O)NCc2ccco2)sc2nc(N3CCOCC3)c3c(c12)CCCC3	inconclusive: 31.6 µM [inhibitor, single point]
Cc1noc(C)c1-c1ccc2ncnc(NC(C)c3ccco3)c2c1 (stereo unspecified)	inconclusive: 31.6 µM [inhibitor, single point]
N#Cc1cc(-c2ccccc2)[nH]c1-c1nccc2ccccc12	inconclusive: 8.91 µM [inhibitor, single point]
Cc1cccc(C)c1NC(=O)COC(=O)c1ccc([N+](=O)[O-])o1	inconclusive: 28.2 µM [inhibitor, partial curve, poor fit]
C/C(=N\NC(=O)c1cc(-c2cccc([N+](=O)[O-])c2)n[nH]1)c1ccc(F)cc1	inconclusive: 3.55 µM [inhibitor, single point]
COc1cccc(OC)c1OCCCOc1cccc2cccnc12	inconclusive: 6.31 µM [inhibitor, single point]
CCN(C(=O)COC(=O)c1cc(-c2cccc3ccccc23)nc2ccccc12)C1CCS(=O)(=O)C1 (stereo unspecified)	inconclusive: 44.7 µM [inhibitor, single point]
Cc1ccc(N=Cc2cc(Br)cc(Cl)c2O)cc1	inconclusive: 7.08 µM [inhibitor, partial curve, poor fit]
COc1ccc(CNC(=O)Nc2ccc(C)cc2)cc1	inconclusive: 44.7 µM [inhibitor, single point]
O=C(OCc1ccccc1)[C@@H]1COC(c2ccc(Br)cc2)=N1	inactive

Later entries

| Compound | Potency |
| --- | --- |
| CCn1nc(C)c(CN2CCc3c([nH]c4ccccc34)C2C(C)(C)C)c1C (stereo unspecified) | inconclusive: 44.7 µM [inhibitor, single point] |
| O=C(NC1CCCC1)c1ccc2nc(-c3ccco3)c(-c3ccco3)nc2c1 | inconclusive: 31.6 µM [inhibitor, partial curve] |
| CC(C)NC(=O)C(=O)N/N=C/c1ccco1 | inconclusive: 44.7 µM [inhibitor, single point] |
| CC(/C=N/Nc1nnc2c(n1)[nH]c1ccccc12)=C\c1ccco1 | inconclusive: 3.98 µM [inhibitor, single point] |
| O=C(N1CCN(c2cccc(Cl)c2)CC1)C1(S(=O)(=O)c2ccc(Cl)cc2)CC1 | inconclusive: 12.6 µM [inhibitor, partial curve] |
| CC(=C/c1ccco1)/C=N/NC(=O)c1nnn(-c2nonc2N)c1CN(C)C | inconclusive: 39.8 µM [inhibitor, single point] |
| N=c1n(CCN2CCCCC2)c2ccccc2n1CC(O)c1ccc(Cl)c(Cl)c1 (stereo unspecified) | inconclusive: 5.62 µM [inhibitor, single point] |
| Cc1cccc(NC(=O)c2ccc3ccccc3n2)c1C | inactive |
| COc1ccc(N2CCN(C(=O)C(C)(C)Oc3ccc(Cl)cc3)CC2)cc1 | inconclusive: 35.5 µM [inhibitor, partial curve] |
| CCc1n[nH]c2c1/C(=N\O)CC(c1ccccc1)C2 (stereo unspecified) | inconclusive: 3.55 µM [inhibitor, single point] |
| O=C(CSc1ccc(-c2ccco2)nn1)c1ccc(F)cc1 | inactive |
| Cc1c(C(=O)O)c(O)cc2c1C(=O)c1c(O)c([C@H]3O[C@H](CO)[C@@H](O)[C@H](O)[C@H]3O)c(O)c(O)c1C2=O | active: 10 µM |
| Cc1ccccc1N1C(=O)CC(N2CCC(C(N)=O)CC2)C1=O (stereo unspecified) | inactive |
| NC(=NC1CCCCC1)c1ccc([N+](=O)[O-])cc1 | inconclusive: 3.55 µM [inhibitor, single point] |
| C[C@H]1[C@H](C)CC[C@]2(C(=O)O)CC[C@]3(C)C(=CCC4[C@@]5(C)CC[C@H](O)C(C)(C)[C@@H]5CC[C@]43C)[C@H]12 (stereo partly specified) | inconclusive: 44.7 µM [inhibitor, single point] |
| O=C(N/N=C/c1ccc2nccnc2c1)c1ccncc1 | inconclusive: 3.98 µM [inhibitor, single point] |
| COc1ccc2nc(NC(=O)C3=NN(c4ccccc4)C(=O)CC3)sc2c1 | inconclusive: 5.01 µM [inhibitor, full curve] |
| CCN(CC)CCn1c(-c2ccccc2)nc2c(NC3CCCCC3)nc(C)nc21 | inconclusive: 35.5 µM [inhibitor, single point] |
| COc1ccc(OC)c(C2=C/C(=C/c3ccccn3)C(=O)O2)c1 | inactive |
| COc1cc(C=NNc2ccc(S(=O)(=O)Nc3ccccc3C(=O)O)cc2[N+](=O)[O-])ccc1O | inconclusive: 23.8 µM [inhibitor, single point] |
| CCOC(=O)c1c(NC(=O)COc2ncnc3ccccc23)sc(C)c1C | inconclusive: 20 µM [inhibitor, single point] |
| CC(C)CN(C(=O)CCNC(=O)c1ccccc1Cl)C1CCS(=O)(=O)C1 (stereo unspecified) | inactive |

| Compound | Potency |
| --- | --- |
| O=C(NCc1ccc(Cl)c(Cl)c1)c1cccnc1 | inconclusive: 1.12 µM [inhibitor, full curve, poor fit] |
| COc1ccc(N2CCN(c3ccc(Cl)nn3)CC2)cc1 | inconclusive: 44.7 µM [inhibitor, single point] |
| Cc1nnc(SCC(=O)N(C)Cc2ccccc2)[nH]c1=O | inconclusive: 0.0006 µM [inhibitor] |
| Cc1ccc(S(=O)(=O)N2CCCC(C(=O)Nc3cccnc3)C2)cc1 (stereo unspecified) | inactive |
| Cc1ccc(C(=O)N/C(=C/c2ccccc2)C(=O)NCC2CCCO2)cc1 (stereo unspecified) | inconclusive: 31.6 µM [inhibitor, single point] |
| COc1ccc2c(c1)c(CC(=O)N1CCOCC1)c(C)n2C(=O)c1ccc(Cl)cc1 | inconclusive: 28.2 µM [inhibitor, partial curve] |
| COc1cc(/C=C2/NC(=O)NC2=O)cc(Br)c1OCc1ccc(C(=O)O)cc1 | inconclusive: 39.8 µM [inhibitor, single point] |
| CC(OC(=O)CNS(=O)(=O)/C=C/c1ccccc1)C(=O)Nc1ccc(S(=O)(=O)N2CCCC2)cc1 (stereo unspecified) | inconclusive: 0.005 µM [inhibitor, full curve, poor fit] |
| CC1CCN(C(=O)Nc2ccc3nsnc3c2)CC1 | inconclusive: 44.7 µM [inhibitor, single point] |
| Cc1nn(C)c(C)c1CNC(=O)c1cc2n(n1)C(C(F)(F)F)CC(c1cccs1)N2 (stereo unspecified) | inconclusive: 1 µM [inhibitor, single point] |
| COc1ccc(-c2[nH]n(-c3ccc([N+](=O)[O-])cc3)c(=O)c2C=NCc2ccc(F)cc2)cc1 | inactive |
| Cc1ccc2nsnc2c1NS(=O)(=O)c1c(C)ccc2nsnc12 | inactive |
| Cc1coc2c1C(=O)C(=O)c1c-2ccc2c1CCCC2(C)C | inactive |
| O=C(Nc1cccc(F)c1)c1coc(=O)c(Br)c1 | inconclusive: 35.5 µM [inhibitor, single point] |
| Cc1c(C=O)c(=O)n(-c2ccccc2)n1-c1ccccc1 | inconclusive: 39.8 µM [inhibitor, single point] |
| Cc1ccc(C(=O)/C=C/c2ccc3c(c2)OCCO3)c(O)c1 | inactive |
| COc1c(O)cc2oc(-c3ccc(O)cc3)cc(=O)c2c1O | inconclusive: 20 µM [inhibitor, single point] |
| Oc1cc2c(cc1O)CN(C(=S)NCCc1ccc(Cl)cc1)CCC2 | inconclusive: 39.8 µM [inhibitor, single point] |
| O=C(COC(=O)c1ccc(Cl)c(S(=O)(=O)N2CCN(c3ccc(F)cc3)CC2)c1)Nc1cccc(Cl)c1 | inconclusive: 31.6 µM [inhibitor, partial curve, poor fit] |
| O=[N+]([O-])c1ccc(N2CCSCC2)cc1O | inconclusive: 1.78 µM [inhibitor, partial curve] |
| CCN(CC)c1ccc(-c2nn3c(-c4n[nH]c5c4CCC5)nnc3s2)cc1 | inconclusive: 44.7 µM [inhibitor, single point] |
| O=[N+]([O-])c1ccc(O)c(N=Cc2sc3ccccc3c2O)c1 | inconclusive: 8.91 µM [inhibitor, single point] |
